Reference: patent US20160152704A1, “CADHERIN 15 AGONISTS” (THE UNIVERSITY OF BIRMINGHAM, priority 2013, published 2016)
No constants are given. Whether binding was seen depends on the method and setting. For part of these data: Binding seen in cells or lysates may run through a third protein. Some binding calls cover weakened binding; strength is not graded here. For part of these data: Sequences can lack the tags named with a protein.

T1: CDH15-FC protein (human) (UniProt P55291)
T1 sequence: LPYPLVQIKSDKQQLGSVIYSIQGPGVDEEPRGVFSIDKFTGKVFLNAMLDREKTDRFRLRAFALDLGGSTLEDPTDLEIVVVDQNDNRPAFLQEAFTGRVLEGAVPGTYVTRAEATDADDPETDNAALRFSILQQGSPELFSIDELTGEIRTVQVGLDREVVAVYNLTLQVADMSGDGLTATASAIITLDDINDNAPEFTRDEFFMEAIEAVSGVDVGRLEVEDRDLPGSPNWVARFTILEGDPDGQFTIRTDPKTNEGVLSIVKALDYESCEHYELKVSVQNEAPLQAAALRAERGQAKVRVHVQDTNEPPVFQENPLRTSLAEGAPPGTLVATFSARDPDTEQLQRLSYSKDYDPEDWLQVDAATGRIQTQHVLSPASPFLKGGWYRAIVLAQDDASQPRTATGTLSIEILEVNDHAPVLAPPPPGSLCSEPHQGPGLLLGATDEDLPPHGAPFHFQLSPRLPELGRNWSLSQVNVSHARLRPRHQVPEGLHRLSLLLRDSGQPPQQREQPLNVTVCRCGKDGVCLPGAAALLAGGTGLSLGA

T2: cadherin-15 (CDH15) of endothelial cells (HUVEC, HDMEC) (human) (UniProt P55291)
T2 sequence: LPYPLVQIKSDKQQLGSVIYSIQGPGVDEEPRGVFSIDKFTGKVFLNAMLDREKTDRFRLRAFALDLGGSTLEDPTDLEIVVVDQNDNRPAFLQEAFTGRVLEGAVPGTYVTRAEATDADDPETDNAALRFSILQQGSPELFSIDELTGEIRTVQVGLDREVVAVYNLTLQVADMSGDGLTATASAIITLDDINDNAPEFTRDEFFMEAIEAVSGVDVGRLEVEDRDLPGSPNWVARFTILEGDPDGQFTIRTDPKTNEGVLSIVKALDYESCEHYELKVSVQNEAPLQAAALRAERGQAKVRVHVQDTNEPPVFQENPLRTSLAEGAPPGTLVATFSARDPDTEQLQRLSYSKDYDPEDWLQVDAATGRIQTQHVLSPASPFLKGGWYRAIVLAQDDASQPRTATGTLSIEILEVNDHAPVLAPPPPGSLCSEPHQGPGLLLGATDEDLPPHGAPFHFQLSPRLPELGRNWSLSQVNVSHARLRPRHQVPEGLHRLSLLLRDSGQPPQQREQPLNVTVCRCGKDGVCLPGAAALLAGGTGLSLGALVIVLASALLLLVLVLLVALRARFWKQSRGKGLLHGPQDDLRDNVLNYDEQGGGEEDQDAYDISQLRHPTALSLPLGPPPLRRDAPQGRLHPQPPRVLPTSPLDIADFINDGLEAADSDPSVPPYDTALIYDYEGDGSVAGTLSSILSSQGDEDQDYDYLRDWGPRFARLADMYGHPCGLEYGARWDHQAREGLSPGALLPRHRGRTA


Legend:
CDH15-FC protein (human) [1] = biological target: T1, CDH15-FC protein (human); test: SPR, CDH15-FC immobilised on the chip
CDH15-FC protein (human) [2] = biological target: T1, CDH15-FC protein (human); test: SPR (Biocore 3000), CDH15-FC immobilised, PEPITEM perfused at increasing concentration
[3] = biological target: T2, cadherin-15 (CDH15) of endothelial cells (HUVEC, HDMEC) (human); test: pull-down of biotinylated PEPITEM from endothelial cells (HDMEC, HUVEC) on neutravidin columns, LC-MS/MS

Row | Binder | binding (CDH15-FC protein (human) [1]) | binding (CDH15-FC protein (human) [2]) | binding [3]
1 | SVTEQGAELSNEER [PEPITEM] | binds | binds | 
2 | SVTEQGAELSNEER (biotin conjugate on the N-terminus) [PEPITEM with a biotin conjugate on the N-terminus] |  |  | binds
